Laboratory results: PMC9163039
No constants are given. Whether binding was seen depends on the method and setting. Some entries that bind do so weakly or less than the wild type.

The chains behind the UniProt entries cited, without tags or fusion partners.
UniProt P0DMV8: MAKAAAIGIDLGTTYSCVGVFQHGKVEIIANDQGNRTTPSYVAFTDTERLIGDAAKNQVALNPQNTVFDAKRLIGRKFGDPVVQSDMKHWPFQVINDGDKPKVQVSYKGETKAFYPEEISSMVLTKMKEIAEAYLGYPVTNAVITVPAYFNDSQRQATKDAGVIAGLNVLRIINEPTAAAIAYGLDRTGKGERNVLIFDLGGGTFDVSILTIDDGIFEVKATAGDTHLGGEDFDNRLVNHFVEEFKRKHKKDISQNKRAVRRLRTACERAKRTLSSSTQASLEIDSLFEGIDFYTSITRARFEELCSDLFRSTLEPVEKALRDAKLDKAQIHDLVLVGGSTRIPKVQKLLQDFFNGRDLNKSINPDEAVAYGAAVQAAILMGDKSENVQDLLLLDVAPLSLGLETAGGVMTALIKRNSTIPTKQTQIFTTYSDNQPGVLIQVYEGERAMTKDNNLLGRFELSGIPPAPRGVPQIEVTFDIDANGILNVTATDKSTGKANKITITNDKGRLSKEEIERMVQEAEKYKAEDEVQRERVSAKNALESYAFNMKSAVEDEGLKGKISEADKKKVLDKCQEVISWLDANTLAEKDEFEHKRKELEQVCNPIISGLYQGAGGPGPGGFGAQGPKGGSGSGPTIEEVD
UniProt O95816: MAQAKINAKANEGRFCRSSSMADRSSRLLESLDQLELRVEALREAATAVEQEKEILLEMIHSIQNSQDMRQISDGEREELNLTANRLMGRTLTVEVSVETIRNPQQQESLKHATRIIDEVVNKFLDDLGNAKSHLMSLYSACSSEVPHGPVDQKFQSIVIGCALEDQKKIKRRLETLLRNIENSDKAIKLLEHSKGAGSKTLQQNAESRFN

Target: Hsp72 (Hsp70), apo, biotinylated (human) (UniProt P0DMV8)
Assay: flow cytometry protein interaction assay (FCPIA); biotinylated Apo-Hsp72 immobilized on streptavidin coated polystyrene beads, incubated with Alexa Fluor 488 labeled BAG2 protein; median bead-associated fluorescence; biocytin-capped beads subtracted; both purified

BAG2, recombinant, labeled with Alexa Fluor 488 (from UniProt O95816 1-211)
binding: binds
